Source: PubChem BioAssay AID1508597 (Cure First, 2020)

Test: 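Survival screen with siRNA in ovarian cancer cells derived from patients, with or without rucaparib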 (primary screen)
System: human ovarian carcinoma lines grown from tumours: OCI-P5x (papillary serous) and OCI-C5x (clear cell)
Reagent: siRNA pool against human genes, 1.25 pmol siRNA per well
Timing: 72 h or 96 h, depending on the cell culture
Challenge: rucaparib 20 µM (about IC30) or vehicle, present until read-out
Rucaparib or vehicle: Vehicle
Cell line: OCI-C5x (clear cell)
Measured: 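ATP luminescence measured at 72 or 96 h according to the culture, then normalised and expressed as percent viability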
Scale: viability, normalised: higher = more viable cells remaining
Rule for the call: 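Active when normalised viability falls below 80 percent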
Calls: active = viability under 80%; inactive = viability 80% or more
Shown is an unselected part of the about 2,100 reagents, under one of the conditions tested. 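Calls flag viability under 80% in either arm, not effects specific to rucaparib; the reference for percent is not stated.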 A number with no mark means an inactive call. A reagent listed more than once was tested more than once; the source does not tell the runs apart. Not stated in the record: the 100% reference.

ARID3B (GeneID 10620), technical replicate 1
- viability, normalised (%): 53.4 (active)

ARID3B (GeneID 10620), technical replicate 2
- viability, normalised (%): 40.1 (active)

ARID3B (GeneID 10620), technical replicate 3
- viability, normalised (%): 35.8 (active)

MYSM1 (GeneID 114803), technical replicate 1
- viability, normalised (%): 36.8 (active)

MYSM1 (GeneID 114803), technical replicate 2
- viability, normalised (%): 32.6 (active)

MYSM1 (GeneID 114803), technical replicate 3
- viability, normalised (%): 40.9 (active)

TESK1 (GeneID 7016), technical replicate 1
- viability, normalised (%): 55.3 (active)

TESK1 (GeneID 7016), technical replicate 2
- viability, normalised (%): 45.2 (active)

TESK1 (GeneID 7016), technical replicate 3
- viability, normalised (%): 44.6 (active)

MED9 (GeneID 55090), technical replicate 1
- viability, normalised (%): 26.8 (active)

MED9 (GeneID 55090), technical replicate 2
- viability, normalised (%): 53.1 (active)

MED9 (GeneID 55090), technical replicate 3
- viability, normalised (%): 42.4 (active)

FYN (GeneID 2534), technical replicate 1
- viability, normalised (%): 65.8 (active)

FYN (GeneID 2534), technical replicate 2
- viability, normalised (%): 42.3 (active)

FYN (GeneID 2534), technical replicate 3
- viability, normalised (%): 56.8 (active)

POLN (GeneID 353497), technical replicate 1
- viability, normalised (%): 55.7 (active)

POLN (GeneID 353497), technical replicate 2
- viability, normalised (%): 46.4 (active)

POLN (GeneID 353497), technical replicate 3
- viability, normalised (%): 50.7 (active)

CDC42BPG (GeneID 55561), technical replicate 1
- viability, normalised (%): 55.9 (active)

CDC42BPG (GeneID 55561), technical replicate 2
- viability, normalised (%): 62 (active)

CDC42BPG (GeneID 55561), technical replicate 3
- viability, normalised (%): 44.9 (active)

RECQL5 (GeneID 9400), technical replicate 1
- viability, normalised (%): 84.8

RECQL5 (GeneID 9400), technical replicate 1
- viability, normalised (%): 42.9 (active)

RECQL5 (GeneID 9400), technical replicate 2
- viability, normalised (%): 34.2 (active)

RECQL5 (GeneID 9400), technical replicate 2
- viability, normalised (%): 99.8

RECQL5 (GeneID 9400), technical replicate 3
- viability, normalised (%): 33.2 (active)

RECQL5 (GeneID 9400), technical replicate 3
- viability, normalised (%): 77.2 (active)

NIPBL (GeneID 25836), technical replicate 1
- viability, normalised (%): 49.3 (active)

NIPBL (GeneID 25836), technical replicate 2
- viability, normalised (%): 43.1 (active)

NIPBL (GeneID 25836), technical replicate 3
- viability, normalised (%): 37.8 (active)

AUNIP (GeneID 79000), technical replicate 1
- viability, normalised (%): 15.7 (active)

AUNIP (GeneID 79000), technical replicate 2
- viability, normalised (%): 12 (active)

AUNIP (GeneID 79000), technical replicate 3
- viability, normalised (%): 10 (active)

CDH5 (GeneID 1003), technical replicate 1
- viability, normalised (%): 59.3 (active)

CDH5 (GeneID 1003), technical replicate 2
- viability, normalised (%): 57.4 (active)

CDH5 (GeneID 1003), technical replicate 3
- viability, normalised (%): 53.1 (active)

PRMT3 (GeneID 10196), technical replicate 1
- viability, normalised (%): 51.2 (active)

PRMT3 (GeneID 10196), technical replicate 2
- viability, normalised (%): 38.5 (active)

PRMT3 (GeneID 10196), technical replicate 3
- viability, normalised (%): 48.1 (active)

CLK2 (GeneID 1196), technical replicate 1
- viability, normalised (%): 95.5

CLK2 (GeneID 1196), technical replicate 1
- viability, normalised (%): 58.1 (active)

CLK2 (GeneID 1196), technical replicate 2
- viability, normalised (%): 98.9

CLK2 (GeneID 1196), technical replicate 2
- viability, normalised (%): 66.3 (active)

CLK2 (GeneID 1196), technical replicate 3
- viability, normalised (%): 74 (active)

CLK2 (GeneID 1196), technical replicate 3
- viability, normalised (%): 59.2 (active)

Laid out differently: entries from further up.
{"target gene":"FYN (GeneID 2534)","technical replicate":"3","viability, normalised (%)":"56.8 (active)"}
{"target gene":"POLN (GeneID 353497)","technical replicate":"1","viability, normalised (%)":"55.7 (active)"}
{"target gene":"POLN (GeneID 353497)","technical replicate":"2","viability, normalised (%)":"46.4 (active)"}
{"target gene":"POLN (GeneID 353497)","technical replicate":"3","viability, normalised (%)":"50.7 (active)"}
{"target gene":"CDC42BPG (GeneID 55561)","technical replicate":"1","viability, normalised (%)":"55.9 (active)"}
{"target gene":"CDC42BPG (GeneID 55561)","technical replicate":"2","viability, normalised (%)":"62 (active)"}
{"target gene":"CDC42BPG (GeneID 55561)","technical replicate":"3","viability, normalised (%)":"44.9 (active)"}
